{"source": "the supplement of paper PMC8728848", "assay_in_all_cases": "glycan array binding signal (z-score within array); higher = stronger binding", "conditions_in_all_cases": "glycan notation: IUPAC condensed, linker removed", "key": {"Gal(b1-4)Glc": {"biological_target": "Gal(b1-4)Glc", "how_it_was_run": "(§1)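 Arrays were curated from the Consortium for Functional Glycomics database, 3228 in total, and kept only where the protein sequence was available. Binding is expressed as a within-array Z-score. This score was averaged across arrays of the same protein sequence at different concentrations or buffers and across linkers, and negative values can be read as non-binding.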"}, "Gal(b1-4)Glc6S": {"biological_target": "Gal(b1-4)Glc6S", "how_it_was_run": "as §1"}, "Gal(b1-4)GlcNAc": {"biological_target": "Gal(b1-4)GlcNAc", "how_it_was_run": "as §1"}, "[1]": {"biological_target": "Gal(b1-4)GlcNAc(a1-6)Gal(b1-4)GlcNAc", "how_it_was_run": "as §1"}, "Gal(b1-4)GlcNAc(b1-2)Man": {"biological_target": "Gal(b1-4)GlcNAc(b1-2)Man", "how_it_was_run": "as §1"}, "[2]": {"biological_target": "Gal(b1-4)GlcNAc(b1-2)Man(a1-3)Man(b1-4)GlcNAc(b1-4)GlcNAc", "how_it_was_run": "as §1"}, "[3]": {"biological_target": "Gal(b1-4)GlcNAc(b1-2)Man(a1-3)[Gal(b1-4)GlcNAc(b1-2)Man(a1-6)]Man(b1-4)GlcNAc(b1-4)GlcNAc", "how_it_was_run": "as §1"}, "[4]": {"biological_target": "Gal(b1-4)GlcNAc(b1-2)Man(a1-3)[Gal(b1-4)GlcNAc(b1-2)Man(a1-6)]Man(b1-4)GlcNAc(b1-4)[Fuc(a1-6)]GlcNAc", "how_it_was_run": "as §1"}, "[5]": {"biological_target": "Gal(b1-4)GlcNAc(b1-2)Man(a1-3)[Gal(b1-4)GlcNAc(b1-2)Man(a1-6)][Gal(b1-4)GlcNAc(b1-4)]Man(b1-4)GlcNAc(b1-4)[Fuc(a1-6)]GlcNAc", "how_it_was_run": "as §1"}, "[6]": {"biological_target": "Gal(b1-4)GlcNAc(b1-2)Man(a1-3)[Gal(b1-4)GlcNAc(b1-2)Man(a1-6)][GlcNAc(b1-4)]Man(b1-4)GlcNAc(b1-4)[Fuc(a1-6)]GlcNAc", "how_it_was_run": "as §1"}, "[7]": {"biological_target": "Gal(b1-4)GlcNAc(b1-2)Man(a1-3)[GlcNAc(b1-2)Man(a1-6)]Man(b1-4)GlcNAc(b1-4)GlcNAc", "how_it_was_run": "as §1"}, "[8]": {"biological_target": "Gal(b1-4)GlcNAc(b1-2)Man(a1-3)[GlcNAc(b1-4)][Gal(b1-4)GlcNAc(b1-2)Man(a1-6)]Man(b1-4)GlcNAc(b1-4)GlcNAc", "how_it_was_run": "as §1"}, "[9]": {"biological_target": "Gal(b1-4)GlcNAc(b1-2)Man(a1-3)[Man(a1-6)]Man(b1-4)GlcNAc(b1-4)GlcNAc", "how_it_was_run": "as §1"}, "[10]": {"biological_target": "Gal(b1-4)GlcNAc(b1-2)Man(a1-6)Man(b1-4)GlcNAc(b1-4)GlcNAc", "how_it_was_run": "as §1"}, "[11]": {"biological_target": "Gal(b1-4)GlcNAc(b1-2)Man(a1-6)[GlcNAc(b1-2)Man(a1-3)]Man(b1-4)GlcNAc(b1-4)GlcNAc", "how_it_was_run": "as §1"}, "[12]": {"biological_target": "Gal(b1-4)GlcNAc(b1-2)Man(a1-6)[Man(a1-3)]Man(b1-4)GlcNAc(b1-4)GlcNAc", "how_it_was_run": "as §1"}, "[13]": {"biological_target": "Gal(b1-4)GlcNAc(b1-2)[Gal(b1-4)GlcNAc(b1-4)]Man(a1-3)[Gal(b1-4)GlcNAc(b1-2)Man(a1-6)]Man(b1-4)GlcNAc(b1-4)GlcNAc", "how_it_was_run": "as §1"}, "[14]": {"biological_target": "Gal(b1-4)GlcNAc(b1-2)[Gal(b1-4)GlcNAc(b1-4)]Man(a1-3)[Gal(b1-4)GlcNAc(b1-2)[Gal(b1-4)GlcNAc(b1-6)]Man(a1-6)]Man(b1-4)GlcNAc(b1-4)GlcNAc", "how_it_was_run": "as §1"}, "[15]": {"biological_target": "Gal(b1-4)GlcNAc(b1-2)[Gal(b1-4)GlcNAc(b1-4)]Man(a1-3)[GlcNAc(b1-4)][Gal(b1-4)GlcNAc(b1-2)Man(a1-6)]Man(b1-4)GlcNAc(b1-4)GlcNAc", "how_it_was_run": "as §1"}, "[16]": {"biological_target": "Gal(b1-4)GlcNAc(b1-2)[Gal(b1-4)GlcNAc(b1-4)]Man(a1-3)[GlcNAc(b1-4)][Gal(b1-4)GlcNAc(b1-2)[Gal(b1-4)GlcNAc(b1-6)]Man(a1-6)]Man(b1-4)GlcNAc(b1-4)GlcNAc", "how_it_was_run": "as §1"}, "[17]": {"biological_target": "Gal(b1-4)GlcNAc(b1-2)[Gal(b1-4)GlcNAc(b1-6)]Man(a1-6)[Gal(b1-4)GlcNAc(b1-2)Man(a1-3)]Man(b1-4)GlcNAc(b1-4)GlcNAc", "how_it_was_run": "as §1"}, "[18]": {"biological_target": "Gal(b1-4)GlcNAc(b1-2)[Gal(b1-4)GlcNAc(b1-6)]Man(a1-6)[Gal(b1-4)GlcNAc(b1-2)Man(a1-3)]Man(b1-4)GlcNAc(b1-4)[Fuc(a1-6)]GlcNAc", "how_it_was_run": "as §1"}}, "note": "The list shows a part of the results."}
{"binder": "Pwp6 (Candida glabrata) (protein) MGSSHHHHHHSSGLVPRGSHMASANLPKLTNICQIPDNVKKTSGFKGEIRRIGLFPPGGDYTYLLKFPSTGSTASDTISLTTKPQLSTSGWFPSLFGHTYFIKADLLVYMVAYFVPTETGEYTFKLVNSDDAAVMYVGNPSAFPCGSIDTWPEPRKEDINVCDKISASTKLYMEKGLAYPVRLVWYNGGGDGQFNAQFIDPSGTTHTDWNGYVWQYDACTDCDYK", "values": [{"measurement": "glycan array binding signal (z-score)", "setting": "Gal(b1-4)Glc", "result": -0.681}, {"measurement": "glycan array binding signal (z-score)", "setting": "Gal(b1-4)Glc6S", "result": -0.582}, {"measurement": "glycan array binding signal (z-score)", "setting": "Gal(b1-4)GlcNAc", "result": -0.877}, {"measurement": "glycan array binding signal (z-score)", "setting": "[1]", "result": -0.631}, {"measurement": "glycan array binding signal (z-score)", "setting": "Gal(b1-4)GlcNAc(b1-2)Man", "result": -0.45}, {"measurement": "glycan array binding signal (z-score)", "setting": "[2]", "result": 0.112}, {"measurement": "glycan array binding signal (z-score)", "setting": "[3]", "result": 0.039}, {"measurement": "glycan array binding signal (z-score)", "setting": "[4]", "result": -0.089}, {"measurement": "glycan array binding signal (z-score)", "setting": "[5]", "result": -0.334}, {"measurement": "glycan array binding signal (z-score)", "setting": "[6]", "result": -0.658}, {"measurement": "glycan array binding signal (z-score)", "setting": "[7]", "result": 0.404}, {"measurement": "glycan array binding signal (z-score)", "setting": "[8]", "result": -0.367}, {"measurement": "glycan array binding signal (z-score)", "setting": "[9]", "result": 0.558}, {"measurement": "glycan array binding signal (z-score)", "setting": "[10]", "result": -0.002}, {"measurement": "glycan array binding signal (z-score)", "setting": "[11]", "result": 0.606}, {"measurement": "glycan array binding signal (z-score)", "setting": "[12]", "result": 0.482}, {"measurement": "glycan array binding signal (z-score)", "setting": "[13]", "result": -0.368}, {"measurement": "glycan array binding signal (z-score)", "setting": "[14]", "result": -0.621}, {"measurement": "glycan array binding signal (z-score)", "setting": "[15]", "result": -0.32}, {"measurement": "glycan array binding signal (z-score)", "setting": "[16]", "result": 0.511}, {"measurement": "glycan array binding signal (z-score)", "setting": "[17]", "result": -0.132}, {"measurement": "glycan array binding signal (z-score)", "setting": "[18]", "result": -0.081}]}
